Measurements published in patent US20240190903.
Results from cells or extracts need not show a direct contact. Protein sequences can lack the tags named with them. For part of these data: Construct, isoform or probe ends are uncertain for at least one entry.

Experiments:
[1] = molecular target: T1, ERG (HA-tagged, expressed in 293T) (UniProt P11308); assay: pull-down; conditions: reverse strand 5'-linked E3 ligase ligand (P1-P6); streptavidin pull-down from 293T cells transfected with 100 nM O'PROTAC; six O'PROTACs pooled here; protein in a lysate after overexpression; protein details: HA (pCMV-HA-ERG); label: 5'-biotin on forward strand
T1 sequence (looked up, limits assumed): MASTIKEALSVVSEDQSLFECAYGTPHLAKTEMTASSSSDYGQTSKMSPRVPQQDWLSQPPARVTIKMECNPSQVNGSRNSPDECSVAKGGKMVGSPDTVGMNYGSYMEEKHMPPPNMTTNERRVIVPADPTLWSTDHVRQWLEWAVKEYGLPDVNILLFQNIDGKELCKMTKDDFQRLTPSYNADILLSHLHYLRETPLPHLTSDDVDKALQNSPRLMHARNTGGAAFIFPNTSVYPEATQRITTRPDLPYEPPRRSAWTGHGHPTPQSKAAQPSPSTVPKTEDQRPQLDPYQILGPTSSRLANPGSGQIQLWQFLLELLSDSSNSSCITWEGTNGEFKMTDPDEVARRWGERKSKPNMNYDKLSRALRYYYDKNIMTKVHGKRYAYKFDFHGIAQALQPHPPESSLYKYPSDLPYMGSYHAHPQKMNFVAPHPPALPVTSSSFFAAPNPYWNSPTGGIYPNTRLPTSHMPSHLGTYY

[2] = molecular target: T2, ERG (endogenous, VCaP nuclear extract + full-length and TMPRSS2-ERG T1/E4) (Homo sapiens) (UniProt P11308); assay: EMSA; conditions: protein in an extract, label: 5'-biotin on forward strand
T2 sequence (looked up): T1 sequence (looked up, limits assumed)

Q: Does ACGGACCGGAAATCCGGTT (double strand) bind [1]?
A: Result: binds

Q: Does “ACGGACCGGAAATCCGGTT (double strand) [Biotin-ERG OP-C-N1]” bind ([2]; reverse strand 5'-L7-pomalidomide (CRBN ligand))?
A: Result: binds

Q: Does “ACGGACCGGAAATCCGGTT (double strand) [Biotin-ERG OP-C-P1]” bind ([2]; reverse strand 5'-L1-phthalic acid)?
A: Result: binds
